Data as given in patent publication US20020064855A1.
Results are given in words; binding and its absence hold for the method and conditions named. In cells and extracts the contact can be indirect. Some binding calls cover weakened binding; strength is not graded here. Sequences can lack the tags named with a protein.

Molecular target: T1, AA4 (mouse) (UniProt O89103)
T1 sequence (chain, glycosylated (mature form 130 kDa, precursor 105 kDa)): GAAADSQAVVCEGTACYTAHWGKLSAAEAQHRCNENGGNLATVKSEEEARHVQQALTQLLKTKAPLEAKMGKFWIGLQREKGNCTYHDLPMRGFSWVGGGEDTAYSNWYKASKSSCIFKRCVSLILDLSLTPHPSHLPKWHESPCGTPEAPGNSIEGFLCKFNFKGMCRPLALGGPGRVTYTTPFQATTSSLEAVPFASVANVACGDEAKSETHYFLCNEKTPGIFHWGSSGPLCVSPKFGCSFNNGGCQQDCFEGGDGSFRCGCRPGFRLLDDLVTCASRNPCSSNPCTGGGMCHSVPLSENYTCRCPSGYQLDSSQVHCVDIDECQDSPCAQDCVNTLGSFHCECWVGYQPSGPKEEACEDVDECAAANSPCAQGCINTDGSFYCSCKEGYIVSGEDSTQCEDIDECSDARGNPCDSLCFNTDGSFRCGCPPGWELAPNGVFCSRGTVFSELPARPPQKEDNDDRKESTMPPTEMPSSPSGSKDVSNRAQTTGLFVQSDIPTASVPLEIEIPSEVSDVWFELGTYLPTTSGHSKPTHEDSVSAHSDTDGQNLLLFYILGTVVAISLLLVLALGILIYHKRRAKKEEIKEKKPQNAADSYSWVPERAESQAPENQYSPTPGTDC
Assay: coprecipitation by protein A from NIH 3T3 cells stably producing AA4 and coexpressing AA4-Fc; equimolar amounts of AA4 and AA4-Fc were coprecipitated

B1: AA4-Fc fusion protein (Fc fusion, not shown: a dimerising Fc or GST)
chain: ADSQAVVCEGTACYTAHWGKLSAAEAQHRCNENGGNLATVKSEEEARHVQQALTQLLKTKAPLEAKMGKFWIGLQREKGNCTYHDLPMRGFSWVGGGEDTAYSNWYKASKSSCIFKRCVSLILDLSLTPHPSHLPKWHESPCGTPEAPGNSIEGFLCKFNFKGMCRPLALGGPGRVTYTTPFQATTSSLEAVPFASVANVACGDEAKSETHYFLCNEKTPGIFHWGSSGPLCVSPKFGCSFNNGGCQQDCFEGGDGSFRCGCRPGFRLLDDLVTCASRNPCSSNPCTGGGMCHSVPLSENYTCRCPSGYQLDSSQVHCVDIDECQDSPCAQDCVNTLGSFHCECWVGYQPSGPKEEACEDVDECAAANSPCAQGCINTDGSFYCSCKEGYIVSGEDSTQCEDIDECSDARGNPCDSLCFNTDGSFRCGCPPGWELAPNGVFCSRGTVFSELPARPPQKEDNDDRKESTMPPTEMPSSPSGSKDVSNRAQTTGLFVQSDIPTASVPLEIEIPSEVSDVWFELGTYLPTTSGHSKPTHEDSVSAHSDTDGQN
  binding: binds
